Laboratory results: PMC5335514
Results are given in words; binding and its absence hold for the method and conditions named. Binding seen in cells or lysates may run through a third protein. Some binding calls cover weakened binding; strength is not graded here.

Amino acid sequences for entries named in this document (tags omitted).
UniProt P27695: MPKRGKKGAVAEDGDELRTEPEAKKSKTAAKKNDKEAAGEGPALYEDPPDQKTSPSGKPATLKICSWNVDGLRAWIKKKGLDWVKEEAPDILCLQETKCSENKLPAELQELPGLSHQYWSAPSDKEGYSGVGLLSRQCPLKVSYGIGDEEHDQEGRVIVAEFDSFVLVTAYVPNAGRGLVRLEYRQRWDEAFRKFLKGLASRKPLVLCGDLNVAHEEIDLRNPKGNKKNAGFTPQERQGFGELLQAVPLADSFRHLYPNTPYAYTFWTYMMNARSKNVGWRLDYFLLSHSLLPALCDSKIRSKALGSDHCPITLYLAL
UniProt P18887: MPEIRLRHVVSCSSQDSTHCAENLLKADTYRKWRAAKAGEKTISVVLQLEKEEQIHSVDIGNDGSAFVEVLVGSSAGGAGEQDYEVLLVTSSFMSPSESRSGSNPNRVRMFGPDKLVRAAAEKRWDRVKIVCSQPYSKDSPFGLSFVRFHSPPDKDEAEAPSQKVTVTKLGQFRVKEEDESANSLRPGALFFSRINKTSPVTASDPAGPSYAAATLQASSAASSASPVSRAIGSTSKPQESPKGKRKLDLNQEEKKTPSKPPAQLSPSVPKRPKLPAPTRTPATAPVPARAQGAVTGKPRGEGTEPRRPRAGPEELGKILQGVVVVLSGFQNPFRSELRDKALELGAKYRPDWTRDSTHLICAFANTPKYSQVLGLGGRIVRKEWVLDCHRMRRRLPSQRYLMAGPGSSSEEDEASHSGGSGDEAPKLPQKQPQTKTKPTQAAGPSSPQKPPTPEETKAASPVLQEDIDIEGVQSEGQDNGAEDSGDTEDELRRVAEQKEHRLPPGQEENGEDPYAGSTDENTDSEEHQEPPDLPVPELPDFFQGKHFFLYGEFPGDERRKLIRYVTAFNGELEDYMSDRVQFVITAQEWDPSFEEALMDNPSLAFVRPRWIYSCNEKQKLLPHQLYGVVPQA

Molecular target: FLAG-tagged WT APE1 (human apurinic/apyrimidinic endonuclease) (human) (UniProt P27695)
Assay: co-IP; nuclear extract of HEK293T cells overexpressing FLAG-tagged WT or K5R APE1, treated with TSA-nicotinamide for 6 h or not; precipitated with anti-FLAG Ab, blotted with anti-XRCC1 and anti-FLAG

XRCC1 (from UniProt P18887 1-633) (other; other documents disagree on this pair)
binding: binds
